Consider 150 substances from the supplement of paper PMC5949888.

± gives the standard deviation of the averaged measurements. Most values lie at the floor of the assay. Slopes are relative: functional sequences can read slightly below zero. A value given as a limit tells only on which side of the number the result lay.

The series has as its system Saccharomyces cerevisiae PS128 hsf1 delta, HSF1(1-493) fusion. Put plainly: growth estimate (transactivation domain function in HSF1 fusion, heat-shock survival) (a.u. (slope of normalised read count over time)); higher = stronger growth at 37°C, i.e. more transactivation activity. The settings on record: library: random library. The procedure:
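Random 60-nt DNA library encoding peptides of up to 20 aa, fused to the C-terminus of yeast HSF1 residues 1-493 (C-terminal TAD deleted) and expressed from the native HSF1 promoter on a CEN plasmid in hsf1-deleted S. cerevisiae PS128. Cells were selected at 37°C on -trp 5-FOA plates for 0, 2, 4, 6 and 8 days and amplicons were sequenced. Growth estimate is the slope of a robust linear fit of total-sum-normalised read counts (normalised to the first time point) over time, using at least 2 replicates. Sequences are classed functional (TAD activity) above a threshold of -0.13, set from stop-codon control sequences.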
Turning to CFG, the growth estimate was less than -0.25. To EQEISVPRLRLGTIPPSHRG belongs less than -0.25. Under RERRGRPGRVQRGEGLNGFT stands less than -0.25; under WPKSLPEGSRNSTSVCI, less than -0.25. Turning to YSIFCWYTSVLSLSRDLVSC, the growth estimate is -0.245.

On to LGGIGQKHR, for which the growth estimate was less than -0.25. Turning to GVNERTARKQQVGRNSPRRS, the growth estimate is less than -0.25. To LGYLCQCGSETRGRRTLHRT belongs less than -0.25; to PVVHSEMKWGCGRAACLSVS, less than -0.25. For GSYA, the growth estimate was less than -0.25. To SILRFVGKRPLRVLLTRLGH belongs less than -0.25; to CANVLK, less than -0.25. CSIVGWPRKVVERATPWFVH: the growth estimate was less than -0.25. Regarding LLGQA, the growth estimate was less than -0.25. To VSQVCECYGHIN belongs -0.25. With FWDNRRSVPPVIIPHRNVGT, the growth estimate is less than -0.25. Under LARGEMVCL stands less than -0.25; under GGGVIGCGKKGTPRHSVYHD, less than -0.25. To GKCPWESWGDCGGRKGCTIV belongs less than -0.25; to SWDEGYRLEATGMNYWILHL, less than -0.25; to CMAITWVATLKYRLRDGNCI, less than -0.25. On to IDKTRAGVDRC, for which the growth estimate was less than -0.25.

Take RLLPNRSILNPRPELNTSKR: the growth estimate is less than -0.25. Take SIVCKILRTIIRVLS: the growth estimate was -0.17. Take LSQGSGTTASFAWL: the growth estimate is less than -0.25.

In the case of VVLLPVLKIVDPVV, the growth estimate was less than -0.25. Take DSSGASRIKYRL: the growth estimate is less than -0.25. To RPAGRHTMCGISKGRRTGSR belongs less than -0.25. Under LYSVSCEFRMRA stands less than -0.25.

On to CRGFTAIYKNPISPGELSGG, for which the growth estimate is less than -0.25.

For LGILIKVQEGH, the growth estimate is less than -0.25. To KRCMRTTRRCQTLANVRALS belongs less than -0.25; to GGSVMYESMTLEELVRSLCS, -0.0372; to FTL, -0.231. As to FNSALVVRSSIALRAMAAVH, the growth estimate is less than -0.25.

In the case of EIDFIILRPASLLMNPAHLF, the growth estimate is less than -0.25. To NGLTYFGWARWRLCRPACMY belongs less than -0.25. To RSECVLTIGKRREFPSLHCE belongs less than -0.25; to EYGVIRDVIWAGFTKHCYNR, less than -0.25. Under TTSVSVKLTYIATGGQYFG stands less than -0.25; under TINQSIGNDLGLRASCCDSP, less than -0.25.

Turning to NLLQSLAVPRGWRGTSCDTA, the growth estimate was less than -0.25. Consider MLC, for which the growth estimate is less than -0.25. With FPDRYVSFPART, the growth estimate is less than -0.25. For RRVFAKQWGR, the growth estimate was less than -0.25.

Consider DRE, for which the growth estimate was less than -0.25. To DWSAAIGCEFPPIQRSRGTS belongs -0.239; to QGCYQDIRISV, less than -0.25; to YNEVREYYLHRLNFLKVRVY, -0.245. As for HVSDSIK, the growth estimate was less than -0.25.

For the substance GGTAFTMTQMRAIEPKSRMY, the growth estimate is less than -0.25. Under MWSITRA stands less than -0.25.

Turning to TAISGYGLRR, the growth estimate was less than -0.25. Under CEVVRTLVHPVTWIDLSEQC stands less than -0.25. Take GRST: the growth estimate was -0.245. To VCLPEKVYMLR belongs less than -0.25; to ISIAGPARGSYRLPPA, less than -0.25. To LTRREDITGGRVGVWGW belongs less than -0.25; to YWGKRAVDWPCEL, less than -0.25; to VAPPGGVGSLLTGASKGTSG, less than -0.25. To LRGGC belongs less than -0.25. As to VPQINEGCKSGREGVLIRAS, the growth estimate is less than -0.25. QQLDTHEAPVASSPCVVSHV: the growth estimate was less than -0.25. For LGTKWVTQSAG, the growth estimate was less than -0.25. Under ERQGHSARIRQPAHSIILGC stands 0.116.

For the substance YFIVCVDTAYCYHCDSCAYN, the growth estimate is less than -0.25.

Take EINPG: the growth estimate is less than -0.25. To TVLVLRYGRNRPAPVIGTPV belongs less than -0.25; to LSRRSIVLRGPRR, less than -0.25; to RRQAQRPGIGRLAHATRAGT, less than -0.25.

As for FGSGCPQFTSRRYAPPVHGC, the growth estimate was less than -0.25. Under PAVDSQAWARIPHIPPVPDE stands less than -0.25; under TRSGCWYSI, less than -0.25; under LNVMRFTSFSWQPC, less than -0.25. For the substance MVFCRLYRKLSVAVVIQRKT, the growth estimate was less than -0.25.

With GTFTI, the growth estimate was less than -0.25. Under GDNECAHYVCMFSVHHRRTA stands less than -0.25. Consider AGFGAPSATRASQLCAAIGA, for which the growth estimate was less than -0.25.

Consider HCLSVD, for which the growth estimate was less than -0.25. Take HVSEVTVISSISVALDL: the growth estimate was less than -0.25.

REVSTV: the growth estimate is less than -0.25. To LKRLH belongs less than -0.25; to RSA, -0.248 ± 0.003; to SVLATLEPGPGSQLHYIMIA, less than -0.25. To AQLGGQVRV belongs less than -0.25; to NAAYCSAQRPFDARYQWDEV, less than -0.25. As to VSRLKVSLSTYGE, the growth estimate is -0.147. Under TWAFPRAGAKSAPWRPGPWE stands less than -0.25; under DMAIIEL, less than -0.25; under RLNAVTMLCSASTPVCGILR, less than -0.25. As to SIRLLCGAKSGPSAPFFL, the growth estimate was less than -0.25. As to CACQFVREGPQSKSICSLST, the growth estimate was less than -0.25. Regarding LGFTLRAPGAVSGPNAHTGL, the growth estimate is less than -0.25.

With SRSQLFGITKVYLDDV, the growth estimate was -0.239. To RVRGVGMMCRILVGYHTDDE belongs less than -0.25; to FCPTGVGACVPCSEKECQHG, less than -0.25; to AAVL, less than -0.25. Under KDRHRESSYCFIKTRLVCHQ stands less than -0.25; under ISGLQNLVKSHQSTGAVIEP, less than -0.25. Under RTPDYTPTA stands less than -0.25. Consider SEHAYSVQVCLLLIVIDIVS, for which the growth estimate is less than -0.25. Under SGHLTPDTWGLTPPCYNKHG stands less than -0.25.

On to FPCG, for which the growth estimate was less than -0.25.

Turning to WYKPDVQV, the growth estimate was less than -0.25. To KVIDAPCYAQECGTAGHHYN belongs less than -0.25. To WWGGPTAPLALESAPVAGPR belongs less than -0.25.

For YISILITPILERVGLSIALP, the growth estimate is less than -0.25. To LTHAGFAA belongs less than -0.25; to VITISHNCSQIRIRRVNLYS, less than -0.25. Under PLRLLLQGYCLATLGFSPAD stands less than -0.25; under LENGYA, less than -0.25. PWSGVQLQPARLLFNKPAMA: the growth estimate is less than -0.25. For the substance LRALG, the growth estimate was less than -0.25. To PIRALTELLNSRPPHSAS belongs less than -0.25; to LMNW, less than -0.25; to GISKSEPGVELIQVEDRHGP, less than -0.25. As to HQRGLREYEDNLLAPLVSGR, the growth estimate is less than -0.25. To GCGLTDQYACLLGPFYASKI belongs less than -0.25; to GCGSSLDSGGRCLS, less than -0.25. Regarding RGVIVCFASLGNATSASLGA, the growth estimate was less than -0.25. In the case of ANPH, the growth estimate was less than -0.25.

Regarding RSTRREDATFSLPMVYLTD, the growth estimate is less than -0.25.

On to RVSQDAR, for which the growth estimate is less than -0.25. In the case of VRWSRARK, the growth estimate was less than -0.25. To RLLKRLAWVASGGDCQVPPL belongs less than -0.25; to ELH, less than -0.25. To YSPVMDR belongs less than -0.25; to LDLASGDGLEFSVLWFRAKP, less than -0.25. Under GFAGGPLHAGPSSHWGYGLV stands less than -0.25. With LADGLLEG, the growth estimate is less than -0.25.

For the substance PSASEQGTCLRGITCKAGDY, the growth estimate is less than -0.25. Consider KPCQSSGVWIARFKT, for which the growth estimate was less than -0.25. As for GRVALLSLKSREGIIGS, the growth estimate is less than -0.25. In the case of NPGGGARLEFLKYAKSR, the growth estimate was less than -0.25. Turning to SKSRGLRAEYNRFGVGANAR, the growth estimate was less than -0.25.

Take SIHAEYNPDSNCQTMCGSPR: the growth estimate was less than -0.25. To ANSIGAQKSTAFGWEQWRTD belongs less than -0.25; to SSGNCASPHGSRSPILVVRS, less than -0.25. Take LDLLVCPSLTAFTKIPG: the growth estimate was less than -0.25. To LLHPSWTTHGGPQAHPVEGQ belongs less than -0.25. In the case of ELCCDGEFASRHSFLHLVLR, the growth estimate is less than -0.25. For HATTATEQKSPVGEAMRSLC, the growth estimate is less than -0.25. On to NVQDTRSTTISEVDSTPPPP, for which the growth estimate is less than -0.25. Take GLIA: the growth estimate was less than -0.25. As for QLRSTGLGRSSPLLELTAPG, the growth estimate is less than -0.25.

As to EGISEGREYARP, the growth estimate is less than -0.25. To VCSLGVKRLR belongs less than -0.25; to IRDDLVKFRPWIILLKSCIF, less than -0.25. For NNVTQKR, the growth estimate is less than -0.25. Under SQHVSFDPDVSDIHESPGTH stands less than -0.25.
